Measurements reported in publication PMC10628199, “Structural and functional investigations of syn-copalyl diphosphate synthase from Oryza sativa” (Communications Chemistry, 2023).
These are yes or no findings as the source states them, for the method shown. Some binding calls cover weakened binding; strength is not graded here.

Legend:
[1] = biological target: OsCyc1 Q291A (Oryza sativa) (UniProt Q0JF02); assay: SEC-MALS; static light scattering (DAWN HELEOS II) on a Nanofilm SEC-150 column; protein 1.0 mg/mL in buffer A (20 mM Tris-HCl pH 8.0, 200 mM NaCl, 2 mM DTT); both purified
[2] = biological target: full-length OsCyc1 (syn-copalyl diphosphate synthase from Oryza sativa) (Oryza sativa) (UniProt Q0JF02); assay: SEC; Superdex 200 HR 10/300 gel filtration; peak near 11 mL for the wild-type proteins; both purified

binding [1]	binding [2]	Binder
binds	–	OsCyc1 Q291A (enzyme, UniProt Q0JF02 48-767) LISKSPPYPASEETREWEADGQHEHTDELRETTTTMIDGIRTALRSIGEGEISISAYDTSLVALLKRLDGGDGPQFPSTIDWIVQNQLPDGSWGDASFFMMGDRIMSTLACVVALKSWNIHTDKCERGLLFIQENMWRLAHEEEDWMLVGFEIALPSLLDMAKDLDLDIPYDEPALKAIYAERERKLAKIPRDVLHSMPTTLLHSLEGMVDLDWEKLLKLRCLDGSFHCSPASTATAFQQTGDAKCFEYLDGIVKKFNGGVPCIYPLDVYERLWAVDRLTRLGISRHFTSEIEDCLDYIFRNWTPDGLAHTKNCPVKDIDDTAMGFRLLRLYGYQVDPCVLKKFEKDGKFFCLHGESNPSSVTPMYNTYRASQLKFPGDDGVLGRAEVFCRSFLQDRRGSNRMKDKWAIAKDIPGEVEYAMDYPWKASLPRIETRLYLDQYGGSGDVWIGKVLHRMTLFCNDLYLKAAKADFSNFQKECRVELNGLRRWYLRSNLEKFGGTDPQTTLMTSYFLASANIFEANRAAERLGWARVALLADAVSSHFRRIGGPKNSTSNLEELISLVPFDDAYSGSLREAWKQWLMAWTAKESSQESIEGDTAILLVRAIEIFGGRHVLTGQRPDLWEYSQLEQLTSSICCKLSRRVLAQENGESTEKVEEIDQQVDLEMQELTRRVLQGCSAINRLTRETFLHVVKSFCYVAYCSPETIDSHIDKVIFQDVI
–	binds	OsCyc1, wild type, as used for cryo-EM (enzyme, Oryza sativa, syn-copalyl diphosphate synthase OsCyc1 (OsCPS4), Oryza sativa, wild type; the cryo-EM methods say only 'OsCyc1'); the deposited entries tell the construct; Probably the same protein as m1 or m2; also called WT OsCyc1; source: E. coli BL21(DE3), purified; in buffer B) LISKSPPYPASEETREWEADGQHEHTDELRETTTTMIDGIRTALRSIGEGEISISAYDTSLVALLKRLDGGDGPQFPSTIDWIVQNQLPDGSWGDASFFMMGDRIMSTLACVVALKSWNIHTDKCERGLLFIQENMWRLAHEEEDWMLVGFEIALPSLLDMAKDLDLDIPYDEPALKAIYAERERKLAKIPRDVLHSMPTTLLHSLEGMVDLDWEKLLKLRCLDGSFHCSPASTATAFQQTGDQKCFEYLDGIVKKFNGGVPCIYPLDVYERLWAVDRLTRLGISRHFTSEIEDCLDYIFRNWTPDGLAHTKNCPVKDIDDTAMGFRLLRLYGYQVDPCVLKKFEKDGKFFCLHGESNPSSVTPMYNTYRASQLKFPGDDGVLGRAEVFCRSFLQDRRGSNRMKDKWAIAKDIPGEVEYAMDYPWKASLPRIETRLYLDQYGGSGDVWIGKVLHRMTLFCNDLYLKAAKADFSNFQKECRVELNGLRRWYLRSNLEKFGGTDPQTTLMTSYFLASANIFEANRAAERLGWARVALLADAVSSHFRRIGGPKNSTSNLEELISLVPFDDAYSGSLREAWKQWLMAWTAKESSQESIEGDTAILLVRAIEIFGGRHVLTGQRPDLWEYSQLEQLTSSICCKLSRRVLAQENGESTEKVEEIDQQVDLEMQELTRRVLQGCSAINRLTRETFLHVVKSFCYVAYCSPETIDSHIDKVIFQDVI
